Some entries share one result that the patent states for a list of compounds.
Tests used:
Uromyces appendiculatus = test: In vivo preventive test on Uromyces appendiculatus (bean rust); settings: 100 ppm of active ingredient, bean plants sprayed, evaluated 11 days after inoculation, 100% = no disease
Phakopsora pachyrhizi = test: In vivo preventive test on Phakopsora (soybeans); settings: 10 ppm of active ingredient, soybean plants sprayed, evaluated 7 days after inoculation, 100% = no disease
Puccinia recondita = test: In vivo preventive test on Puccinia recondita (brown rust on wheat); settings: 100 ppm of active ingredient, wheat plants sprayed, evaluated 11 days after inoculation, 100% = no disease

Measured: efficacy

Cc1c(NC(=O)c2cccnc2C(F)F)cccc1OC(C)Cc1ccccc1 (stereo not drawn) [Example 88]
at least 70%: all assays above
